Experimental data: PubChem BioAssay AID1159584 (Peter MacCallum Cancer Centre, 2016)
Shown is one part, drawn at random, of about 18,000 deposited reagents. Reagents against one gene are numbered here. Further read-outs or replicates are left out here. No sequences are given here. Not given: the amount of reagent, the time to read-out.

Test: 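Knock-downs that harm CDH1-null cells more than parental MCF10A cells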 (primary screen)
System: human MCF10A breast epithelial cells, parental and CDH1-null
Reagent: siRNA against human genes
Detection: 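Cell viability by CellTiter-Glo ATP luminescence, each line scaled to the mean of mock wells across plates, then CDH1-null over parental ratio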
Scale: CDH1-null / parental viability ratio: higher = CDH1-null cells survive relatively better than parental; CDH1-null viability vs mock: higher = more viable CDH1-null cells

no.	Target gene	reagent	CDH1-null / parental viability ratio	CDH1-null viability vs mock (fraction of mock)
1	SPAST (GeneID 6683)	1	0.81	0.72
2	ANGPTL8 (GeneID 55908)	1	0.89	0.68
3	PLA2G4E (GeneID 123745)	1	1.06	0.66
4	DNAAF4 (GeneID 161582)	1	0.84	0.56
5	EML5 (GeneID 161436)	1	0.92	0.83
6	LOXL1 (GeneID 4016)	1	1.07	0.73
7	CYP4F11 (GeneID 57834)	1	0.89	0.94
8	C9orf72 (GeneID 203228)	1	1.13	0.77
9	BCAT2 (GeneID 587)	1	0.76	0.56
10	JOSD1 (GeneID 9929)	1	1.04	0.84
11	PLD4 (GeneID 122618)	1	0.96	1.08
12	KRTAP6-1 (GeneID 337966)	1	1.28	1.1

Entries above whose target name starts with P or p (2):
Target gene	reagent	CDH1-null / parental viability ratio	CDH1-null viability vs mock (fraction of mock)
PLA2G4E (GeneID 123745)	1	1.06	0.66
PLD4 (GeneID 122618)	1	0.96	1.08

More results follow:
no.	Target gene	reagent	CDH1-null / parental viability ratio	CDH1-null viability vs mock (fraction of mock)
13	PNLIP (GeneID 5406)	1	0.97	0.9
14	DBP (GeneID 1628)	1	0.65	0.51
15	SNX24 (GeneID 28966)	1	1.19	1.07
16	PRKDC (GeneID 5591)	1	0.78	0.74
17	GFOD1 (GeneID 54438)	1	1.16	0.92
18	GFOD1 (GeneID 54438)	2	1.09	0.87
19	ALKBH6 (GeneID 84964)	1	0.93	0.84
20	FRMD8 (GeneID 83786)	1	1.34	0.94
21	SLC27A3 (GeneID 11000)	1	0.83	0.58
22	GPBP1 (GeneID 65056)	1	1.13	0.96
23	OVCA2 (GeneID 124641)	1	0.83	0.69
24	MYL2 (GeneID 4633)	1	1.29	0.99
25	HORMAD1 (GeneID 84072)	1	1.14	1
26	LRRN4CL (GeneID 221091)	1	0.9	0.72
27	ADAM30 (GeneID 11085)	1	1.02	0.84
28	TNS4 (GeneID 84951)	1	0.82	0.62
